Among the data in US20230149554A1, “TARGETED DEGRADATION OF THE ONCOGENIC MICRORNA 17-92 CLUSTER BY STRUCTURE-TARGETING LIGANDS” (University of Florida Research Foundation, Incorporated, priority 2020, published 2023) are cellular localization values, retold here.

Entries after “also recorded” stand apart in the source; their conditions may differ.

The data set is described as follows: Cellular localization by confocal microscopy. Type of data set: cell-based, human. The following applies: 5 μM, 24 h, fluorescence microscopy.

On to `CCCN(CC(=O)N(CCC)CC(=O)N(CCC)CC(=O)N(CC(=O)NCCOCCOCCOCCOc1ccc(/C=C2\SC(Nc3ccccc3)=C(C(=O)OCC)C2=O)cc1O)Cc1cn(CCCNC(=O)CCCOc2c(C(C)(C)C)cc(-c3nc4cc(-c5ccc(N6CCN(C)CC6)cc5)ccc4[nH]3)cc2C(C)(C)C)nn1)C(=O)CN(Cc1cn(CCCNC(=O)CCCOc2c(C(C)(C)C)cc(-c3nc4cc(-c5ccc(N6CCN(C)CC6)cc5)ccc4[nH]3)cc2C(C)(C)C)nn1)C(C)=O` [Compound 7], for which the cellular localization result is “dispersed throughout the cell; also recorded: reside primarily in the cytoplasm”.
